Assay results published in the supplement of paper PMC3334620.
Whole data set: some 33,000 sequences, median “E-score (-0.5 to 0.5)” near -0.016, cut for the highest 2% near 0.3. This is one part of the list.

Molecular target: T1, Yer184c (UniProt P39961)
T1 sequence: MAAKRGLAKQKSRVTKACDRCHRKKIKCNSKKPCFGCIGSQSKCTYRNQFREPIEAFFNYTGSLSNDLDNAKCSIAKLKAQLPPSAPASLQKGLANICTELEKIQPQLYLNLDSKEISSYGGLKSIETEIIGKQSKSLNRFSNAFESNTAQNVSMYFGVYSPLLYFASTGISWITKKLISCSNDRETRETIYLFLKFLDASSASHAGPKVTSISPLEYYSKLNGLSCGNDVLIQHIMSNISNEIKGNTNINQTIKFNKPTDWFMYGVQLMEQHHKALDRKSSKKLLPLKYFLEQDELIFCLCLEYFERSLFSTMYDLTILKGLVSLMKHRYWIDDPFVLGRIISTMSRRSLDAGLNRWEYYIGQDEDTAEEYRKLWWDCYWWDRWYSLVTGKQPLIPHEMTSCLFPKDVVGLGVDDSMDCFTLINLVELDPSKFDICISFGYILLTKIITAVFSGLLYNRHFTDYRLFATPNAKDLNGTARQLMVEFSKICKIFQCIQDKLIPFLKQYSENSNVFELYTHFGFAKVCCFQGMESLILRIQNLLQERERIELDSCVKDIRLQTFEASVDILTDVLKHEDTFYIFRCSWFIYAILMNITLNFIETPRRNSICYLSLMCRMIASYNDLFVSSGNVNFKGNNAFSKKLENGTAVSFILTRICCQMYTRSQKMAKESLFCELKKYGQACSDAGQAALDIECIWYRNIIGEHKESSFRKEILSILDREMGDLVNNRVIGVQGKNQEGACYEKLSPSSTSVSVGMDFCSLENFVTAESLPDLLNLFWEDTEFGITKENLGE
Assay: PBM E-score (8-mer binding enrichment) (E-score (-0.5 to 0.5)); higher = stronger / more preferred TF binding
Conditions: protein concentration: 100 nM; construct: GST-full length
Summary of the method: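 For each ungapped eight-base word taken together with its reverse complement, the Universal PBM Analysis Suite assigned an E-score. Binding data came from GST-tagged yeast transcription factors, applied at about 100-200 nM, on universal all-10-mer Agilent arrays made double-stranded by primer extension. Fluorescent anti-GST marked bound protein, and scans were normalised with masliner.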

Sequence	PBM E-score
GTTCTGTA	0.0334
ACTTCAGG	0.0127
AGAACATA	0.113
CTTAACGC	-0.0695
ACCCCAGG	-0.388
CTGGAACC	-0.0329
AGTCAGAT	-0.21
AACCAGCT	-0.101
CGTTGACC	-0.107
GAAGCATC	-0.162
CAGCTGGC	-0.0716
CCAATGGA	-0.124
ACGACGAC	-0.182
GCTCGTCC	-0.118
GAACATCA	-0.00891
CAGTGCGC	-0.318
ATGTGTAA	-0.131
AGGCTATG	-0.173
CGTGATTA	0.164
GAGTTAAC	0.0766
CCAGGCGC	-0.113
CGGAATCC	0.182

Sequence	PBM E-score
CTCGTGCA	-0.0196
CGCGATAC	-0.142
AATCCATA	-0.0274
CCACGTCG	-0.205
AGAATCAC	0.0544
GCTTACTA	0.0742
ACAACGGG	0.00646
CCAGGCTA	-0.312
CGACTAGA	-0.0598
ACTCACCG	-0.0284
ACAAGAAA	0.228
ACCAGGAC	0.00892
AGGCGAGA	-0.244
AGAATGAG	-0.0972
CGTAGGAC	-0.108
GACACAAA	0.187
CCTTTCTA	0.0542
CAGGCTCG	0.0173
TCACGTGA	0.0867
CTAACTAC	0.0824
GTCCCAAA	-0.0356
GCGACTCA	-0.207

Reprinted at random: three entries already listed.
Sequence	PBM E-score
ACCAGGAC	0.00892
CGTAGGAC	-0.108
CTAACTAC	0.0824

The list goes on:

Sequence	PBM E-score
GGAACAAA	0.247
GAAAATTA	0.0819
CATTTGAC	-0.00846
GTAGGACA	0.129
CCGACGGA	0.257
ACGGCAAT	0.28
CTTGAGCA	-0.144
GCGCTCAC	-0.0674
ACAATGGG	-0.0301
AGTATAAA	0.365
CGTCTGTA	0.00576
GAGCGGGC	-0.0816
AGGATGAA	-0.0513
ATGGGCAC	-0.072
CTAGGACC	-0.323
AGTAGAGA	-0.034
CCCGCGTA	-0.114
CCCGACAA	0.173
CTCGGTAC	-0.0149
TACCGGAA	0.409
TGAGACCA	-0.115
ATCTGTTG	-0.125

Sequence	PBM E-score
AGCTGCGG	-0.0822
GCGCTATA	-0.127
CACGTTAA	-0.03
ACAGATCG	-0.0453
CTGCACGC	-0.179
AAGCCTAG	0.0121
AAAGCTCA	-0.0916
AGACAATC	0.0526
CTTAACAA	0.139
GAAACCCA	0.178
AGTCCCGG	0.0687
ATAGCCTC	-0.105
AAACTTGG	-0.072
TGTCAACA	-0.0408
GCCGGATA	0.354
GGGTTTCA	0.0583
GGTCCCGA	0.0929
CGCGCTAC	0.0439
ATGTAACC	-0.0731
CAGACAAC	0.053
